For 23 targets, log2 fold change results are on record in the supplement of paper PMC10849652.

By UniProt entry, the sequences of proteins in these tests, tags left out. Where a name states a change or a piece, a line headed by the entry shows the natural chain unless it says otherwise.
UniProt Q9H6Z4: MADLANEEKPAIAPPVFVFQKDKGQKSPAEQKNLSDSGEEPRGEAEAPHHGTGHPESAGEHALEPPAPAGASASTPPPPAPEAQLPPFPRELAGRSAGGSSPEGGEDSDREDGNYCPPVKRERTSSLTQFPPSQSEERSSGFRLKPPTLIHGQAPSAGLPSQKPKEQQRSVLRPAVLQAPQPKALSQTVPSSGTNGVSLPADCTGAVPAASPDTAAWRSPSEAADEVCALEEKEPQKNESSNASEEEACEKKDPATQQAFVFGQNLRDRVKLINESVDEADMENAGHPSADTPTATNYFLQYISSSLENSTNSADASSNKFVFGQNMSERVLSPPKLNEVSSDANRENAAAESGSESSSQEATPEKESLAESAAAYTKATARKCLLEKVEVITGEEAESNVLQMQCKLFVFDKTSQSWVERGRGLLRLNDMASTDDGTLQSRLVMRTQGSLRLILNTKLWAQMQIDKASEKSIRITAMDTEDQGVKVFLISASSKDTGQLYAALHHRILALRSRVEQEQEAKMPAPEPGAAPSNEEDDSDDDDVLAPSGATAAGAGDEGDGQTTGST
UniProt P11234: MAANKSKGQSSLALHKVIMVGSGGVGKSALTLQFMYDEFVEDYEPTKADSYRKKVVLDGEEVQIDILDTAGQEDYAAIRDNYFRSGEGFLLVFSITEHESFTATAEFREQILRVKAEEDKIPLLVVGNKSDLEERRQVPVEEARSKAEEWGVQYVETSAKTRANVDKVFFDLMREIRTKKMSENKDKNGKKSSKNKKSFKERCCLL
UniProt Q9BRQ0: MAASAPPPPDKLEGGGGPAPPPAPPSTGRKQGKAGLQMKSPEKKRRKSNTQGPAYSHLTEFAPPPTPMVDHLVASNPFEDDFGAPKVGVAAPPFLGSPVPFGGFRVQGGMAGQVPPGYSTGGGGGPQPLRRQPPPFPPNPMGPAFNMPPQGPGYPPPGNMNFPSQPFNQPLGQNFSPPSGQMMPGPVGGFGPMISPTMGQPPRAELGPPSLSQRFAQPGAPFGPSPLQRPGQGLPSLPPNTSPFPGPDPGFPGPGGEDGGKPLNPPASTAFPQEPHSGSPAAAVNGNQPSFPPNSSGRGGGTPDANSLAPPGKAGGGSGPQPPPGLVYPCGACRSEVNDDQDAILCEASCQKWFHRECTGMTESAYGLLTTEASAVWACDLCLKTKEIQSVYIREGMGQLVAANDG
UniProt Q9H082: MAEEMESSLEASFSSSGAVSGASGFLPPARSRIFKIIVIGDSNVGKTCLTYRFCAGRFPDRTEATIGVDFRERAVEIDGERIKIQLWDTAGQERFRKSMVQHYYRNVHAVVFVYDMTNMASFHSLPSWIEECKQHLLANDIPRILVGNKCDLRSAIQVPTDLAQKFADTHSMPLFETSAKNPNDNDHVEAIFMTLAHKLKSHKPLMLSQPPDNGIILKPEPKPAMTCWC
UniProt O75154: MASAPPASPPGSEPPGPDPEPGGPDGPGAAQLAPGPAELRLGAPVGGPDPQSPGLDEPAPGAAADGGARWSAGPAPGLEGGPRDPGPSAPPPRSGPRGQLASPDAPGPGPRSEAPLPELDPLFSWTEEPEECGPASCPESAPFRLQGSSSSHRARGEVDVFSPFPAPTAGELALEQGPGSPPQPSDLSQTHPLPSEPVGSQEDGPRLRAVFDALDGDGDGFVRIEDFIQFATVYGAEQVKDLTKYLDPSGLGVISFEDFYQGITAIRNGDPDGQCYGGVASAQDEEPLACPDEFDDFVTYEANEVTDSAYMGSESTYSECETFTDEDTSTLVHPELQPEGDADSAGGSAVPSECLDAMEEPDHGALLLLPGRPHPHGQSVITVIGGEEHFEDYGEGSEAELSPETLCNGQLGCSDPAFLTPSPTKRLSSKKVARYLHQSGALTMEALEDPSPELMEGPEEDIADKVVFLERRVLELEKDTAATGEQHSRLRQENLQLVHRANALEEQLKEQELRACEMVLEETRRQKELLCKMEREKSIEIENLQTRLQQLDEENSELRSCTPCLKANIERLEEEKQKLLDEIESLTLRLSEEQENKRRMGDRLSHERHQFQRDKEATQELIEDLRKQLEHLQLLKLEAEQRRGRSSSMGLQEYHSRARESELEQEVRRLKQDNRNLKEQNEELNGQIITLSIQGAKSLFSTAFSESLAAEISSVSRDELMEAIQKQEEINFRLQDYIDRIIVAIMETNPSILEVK
UniProt Q7Z5J4: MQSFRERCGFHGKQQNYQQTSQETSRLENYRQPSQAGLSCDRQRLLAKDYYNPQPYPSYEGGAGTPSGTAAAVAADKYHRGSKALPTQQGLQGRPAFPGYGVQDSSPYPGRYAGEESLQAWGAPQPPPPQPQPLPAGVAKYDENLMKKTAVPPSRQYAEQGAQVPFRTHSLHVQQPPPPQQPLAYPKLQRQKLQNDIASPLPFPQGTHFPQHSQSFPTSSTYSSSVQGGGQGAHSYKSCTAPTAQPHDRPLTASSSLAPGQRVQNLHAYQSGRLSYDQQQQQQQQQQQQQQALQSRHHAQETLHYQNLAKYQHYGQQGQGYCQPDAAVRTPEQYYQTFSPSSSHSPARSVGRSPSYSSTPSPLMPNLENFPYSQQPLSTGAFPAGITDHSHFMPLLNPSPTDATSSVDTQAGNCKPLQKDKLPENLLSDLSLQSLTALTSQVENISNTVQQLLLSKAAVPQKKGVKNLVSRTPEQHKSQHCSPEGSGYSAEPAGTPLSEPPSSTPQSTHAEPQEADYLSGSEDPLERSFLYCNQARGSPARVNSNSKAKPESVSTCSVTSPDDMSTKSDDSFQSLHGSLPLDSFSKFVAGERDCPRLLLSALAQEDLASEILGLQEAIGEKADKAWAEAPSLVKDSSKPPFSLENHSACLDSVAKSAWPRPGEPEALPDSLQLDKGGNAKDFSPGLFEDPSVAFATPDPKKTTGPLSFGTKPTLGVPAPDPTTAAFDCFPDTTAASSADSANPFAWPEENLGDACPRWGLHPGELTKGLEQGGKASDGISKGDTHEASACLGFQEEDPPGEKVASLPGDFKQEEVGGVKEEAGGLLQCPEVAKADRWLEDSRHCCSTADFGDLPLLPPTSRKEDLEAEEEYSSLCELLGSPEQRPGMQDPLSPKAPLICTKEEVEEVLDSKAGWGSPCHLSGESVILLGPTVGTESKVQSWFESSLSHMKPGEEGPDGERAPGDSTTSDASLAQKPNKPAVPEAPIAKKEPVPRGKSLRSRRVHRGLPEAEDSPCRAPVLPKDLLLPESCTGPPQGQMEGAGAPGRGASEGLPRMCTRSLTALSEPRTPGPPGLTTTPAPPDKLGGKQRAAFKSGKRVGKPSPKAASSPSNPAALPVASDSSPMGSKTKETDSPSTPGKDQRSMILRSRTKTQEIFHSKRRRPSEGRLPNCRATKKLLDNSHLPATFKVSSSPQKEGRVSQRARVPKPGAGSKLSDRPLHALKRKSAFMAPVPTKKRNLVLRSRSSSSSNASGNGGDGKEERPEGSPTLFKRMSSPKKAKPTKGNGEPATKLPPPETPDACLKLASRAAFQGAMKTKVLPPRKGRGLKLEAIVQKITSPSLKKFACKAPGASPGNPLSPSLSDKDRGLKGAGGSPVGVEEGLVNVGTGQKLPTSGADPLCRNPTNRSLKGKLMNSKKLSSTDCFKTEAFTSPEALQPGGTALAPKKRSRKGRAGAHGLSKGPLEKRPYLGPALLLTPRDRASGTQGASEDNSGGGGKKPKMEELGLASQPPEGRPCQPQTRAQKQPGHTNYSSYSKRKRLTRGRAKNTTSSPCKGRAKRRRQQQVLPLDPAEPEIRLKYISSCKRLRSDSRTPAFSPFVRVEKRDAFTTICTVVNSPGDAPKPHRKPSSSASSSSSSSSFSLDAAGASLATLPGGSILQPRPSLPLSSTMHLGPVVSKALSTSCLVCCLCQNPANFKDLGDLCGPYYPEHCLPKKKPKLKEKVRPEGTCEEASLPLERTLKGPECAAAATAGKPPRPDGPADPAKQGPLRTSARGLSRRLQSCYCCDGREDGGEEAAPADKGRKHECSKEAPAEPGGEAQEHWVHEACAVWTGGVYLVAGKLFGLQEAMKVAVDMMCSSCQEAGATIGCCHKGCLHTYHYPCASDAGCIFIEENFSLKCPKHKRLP
UniProt P32322: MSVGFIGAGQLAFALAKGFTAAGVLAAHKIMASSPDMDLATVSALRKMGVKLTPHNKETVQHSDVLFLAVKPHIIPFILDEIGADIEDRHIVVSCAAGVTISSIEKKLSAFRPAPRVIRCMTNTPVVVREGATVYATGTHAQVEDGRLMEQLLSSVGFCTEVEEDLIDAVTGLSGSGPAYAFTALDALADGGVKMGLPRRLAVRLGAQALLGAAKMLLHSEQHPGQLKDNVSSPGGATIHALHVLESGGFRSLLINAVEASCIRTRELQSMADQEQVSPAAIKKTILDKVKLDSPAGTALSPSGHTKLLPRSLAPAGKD
UniProt Q9Y620: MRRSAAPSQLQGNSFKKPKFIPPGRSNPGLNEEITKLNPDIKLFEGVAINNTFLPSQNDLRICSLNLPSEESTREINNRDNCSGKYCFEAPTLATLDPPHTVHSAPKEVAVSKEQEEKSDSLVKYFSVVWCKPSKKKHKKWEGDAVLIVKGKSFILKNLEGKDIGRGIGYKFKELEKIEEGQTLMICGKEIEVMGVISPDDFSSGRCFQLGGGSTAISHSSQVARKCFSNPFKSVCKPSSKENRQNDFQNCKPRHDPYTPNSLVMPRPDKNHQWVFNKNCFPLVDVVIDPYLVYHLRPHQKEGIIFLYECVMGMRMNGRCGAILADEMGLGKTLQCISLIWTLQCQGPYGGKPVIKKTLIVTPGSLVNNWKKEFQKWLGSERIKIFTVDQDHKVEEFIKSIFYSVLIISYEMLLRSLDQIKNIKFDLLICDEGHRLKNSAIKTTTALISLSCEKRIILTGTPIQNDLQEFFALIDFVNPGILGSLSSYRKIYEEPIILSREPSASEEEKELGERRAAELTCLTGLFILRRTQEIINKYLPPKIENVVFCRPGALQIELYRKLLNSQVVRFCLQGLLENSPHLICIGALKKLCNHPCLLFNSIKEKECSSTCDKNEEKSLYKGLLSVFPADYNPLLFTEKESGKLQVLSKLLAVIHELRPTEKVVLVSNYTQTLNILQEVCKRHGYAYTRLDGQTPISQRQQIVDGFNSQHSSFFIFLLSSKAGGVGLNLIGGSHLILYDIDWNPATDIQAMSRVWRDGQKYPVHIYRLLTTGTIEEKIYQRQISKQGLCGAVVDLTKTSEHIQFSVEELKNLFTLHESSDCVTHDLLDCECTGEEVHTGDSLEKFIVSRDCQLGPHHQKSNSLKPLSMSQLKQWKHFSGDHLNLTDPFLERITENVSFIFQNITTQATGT
UniProt Q9BUV8: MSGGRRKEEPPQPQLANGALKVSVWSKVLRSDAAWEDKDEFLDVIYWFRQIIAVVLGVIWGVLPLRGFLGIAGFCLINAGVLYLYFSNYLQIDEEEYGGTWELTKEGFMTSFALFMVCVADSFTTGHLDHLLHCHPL
UniProt O00391: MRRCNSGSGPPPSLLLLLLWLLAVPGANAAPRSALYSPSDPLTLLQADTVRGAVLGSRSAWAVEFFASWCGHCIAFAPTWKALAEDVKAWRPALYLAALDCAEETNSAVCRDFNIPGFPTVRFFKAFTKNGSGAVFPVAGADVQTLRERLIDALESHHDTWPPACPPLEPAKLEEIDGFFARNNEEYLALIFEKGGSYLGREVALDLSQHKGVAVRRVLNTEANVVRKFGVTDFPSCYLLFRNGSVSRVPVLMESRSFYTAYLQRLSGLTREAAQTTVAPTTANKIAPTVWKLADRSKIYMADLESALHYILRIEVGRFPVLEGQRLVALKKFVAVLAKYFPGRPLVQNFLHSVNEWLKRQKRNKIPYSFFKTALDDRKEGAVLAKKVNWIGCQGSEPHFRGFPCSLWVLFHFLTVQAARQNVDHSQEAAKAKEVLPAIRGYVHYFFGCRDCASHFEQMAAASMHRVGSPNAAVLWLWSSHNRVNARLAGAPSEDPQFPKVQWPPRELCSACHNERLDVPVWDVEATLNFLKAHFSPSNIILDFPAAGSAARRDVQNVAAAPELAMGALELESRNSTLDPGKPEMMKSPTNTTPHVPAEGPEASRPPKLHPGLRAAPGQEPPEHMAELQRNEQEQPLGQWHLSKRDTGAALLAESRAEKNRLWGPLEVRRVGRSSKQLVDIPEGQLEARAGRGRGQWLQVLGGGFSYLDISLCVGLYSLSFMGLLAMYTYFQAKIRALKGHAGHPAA
UniProt Q96B01: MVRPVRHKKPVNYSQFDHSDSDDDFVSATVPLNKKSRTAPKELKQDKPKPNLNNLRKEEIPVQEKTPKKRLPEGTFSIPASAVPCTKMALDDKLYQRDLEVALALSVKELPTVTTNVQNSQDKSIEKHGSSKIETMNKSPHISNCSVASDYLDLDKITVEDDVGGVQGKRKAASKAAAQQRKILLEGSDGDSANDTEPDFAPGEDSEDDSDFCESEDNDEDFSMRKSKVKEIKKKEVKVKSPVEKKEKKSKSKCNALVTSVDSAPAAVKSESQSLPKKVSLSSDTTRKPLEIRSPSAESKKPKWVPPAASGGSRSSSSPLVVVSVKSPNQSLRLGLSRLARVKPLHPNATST

The other results are listed elsewhere or left out.

Compound in this assay: c1cn2cc(-c3ccc4cn[nH]c4c3)nc(Nc3ccc(N4CCOCC4)cc3)c2n1 [entospletinib]
Nature of the assay: log2 fold change, soluble protein after heating vs DMSO (PISA); higher = thermal stabilisation; K562 lysate, 10 uM; active = over 0.2 and 3.5 SD of the protein, either way, in both replicates (recomputed). The method, boiled down: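 K562 pellets were dounce-homogenised in PBS pH 7.4 with 1 mM MgCl2, and the crude extract at 1 mg/mL protein was treated with 10 μM compound for 30 min. Aliquots were heated for 3 min across 48°C-58°C, pooled, and brought to 0.5% NP-40 at 4°C; soluble protein was the supernatant after 21,000xg for 90 min. Soluble protein was quantified by TMTpro 16plex LC-MS/MS with channel sums equalised, and reported as log2 fold change in thermal stability against DMSO controls, with values from duplicates.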
RANBP3 isoform 2 (UniProt Q9H6Z4): the log2 fold change is inactive: -0.016. The same measure for QTRT2 isoform 4 (UniProt Q9H974): inactive: 0.022; for RALB isoform 2 (UniProt P11234): inactive: -0.07. Next, PYGO2 (UniProt Q9BRQ0): active: 0.269; R3HDM2 (UniProt B5MCU0): inactive: -0.209; RABGGTA (UniProt Q92696): inactive: 0. RAB33B (UniProt Q9H082): the log2 fold change was inactive: -0.066. For RAB11FIP3 isoform 3 (UniProt O75154), the log2 fold change was inactive: 0. The same measure for RACK1 (UniProt D6RF23): inactive: -0.073; for RAB27B (UniProt O00194): inactive: 0.167. The same measure for RAI1 (UniProt Q7Z5J4): inactive: 0.091; for RAB43 (UniProt Q86YS6): inactive: 0.029. Regarding PYCR1 isoform 3 (UniProt P32322), the log2 fold change is inactive: 0.01. The same measure for RAP2C (UniProt Q9Y3L5): inactive: 0.005. The same measure for RAD54B (UniProt Q9Y620): inactive: -0.025; for RAD51D (UniProt O75771): inactive: -0.017. The same measure for RAB11FIP4 (UniProt Q86YS3): inactive: 0.019; for RALGAPB isoform 3 (UniProt Q86X10): inactive: -0.045. Turning to RAB5IF isoform 5 (UniProt Q9BUV8), the log2 fold change was inactive: -0.015. As for QSOX1 (UniProt O00391), the log2 fold change was inactive: -0.029. Take RAD17 (UniProt O75943): the log2 fold change was inactive: -0.039. Next, RAD51AP1 (UniProt Q96B01): inactive: -0.011. The same measure for RAB6D (UniProt Q53S08): inactive: -0.01.
